# Assay results from the supplement of paper PMC11438910.
# This is one part of the list. Only a few entries rise above the background.
# B1: 3S41.1 (protein)
# chain 1: EVQLVESGGGLVQPGGSLRLSCATSGFTFRNYWMYWFRQAPGKGLDWVSSISDSSSNTFYSDSVKGRFTISRDNAKNTLYLQMNSLRAEDTAVYYCARRPIAAATGVYWYFDLWGPGTPITVSS
# chain 2: EIVMTQSPATLSLSPGERATLSCRASQNIGSNLAWYQQKPGRAPKLLIYDASSRATGIPDRFSASGSGTDFTLTISSLEPEDVGVYYCQQYNNWKIFGPGTKLEIK
# Experiments:
# Test in all cases: fluorescence intensity of antibody binding to polysaccharide-coupled beads; higher = stronger binding
# [1] = target: pneumococcal polysaccharide C-Poly-1
# [2] = target: pneumococcal polysaccharide C-Poly-2
# [3] = target: pneumococcal polysaccharide Pn1
# [4] = target: pneumococcal polysaccharide Pn10A
# [5] = target: pneumococcal polysaccharide Pn10B
# [6] = target: pneumococcal polysaccharide Pn10C
# [7] = target: pneumococcal polysaccharide Pn10F
# [8] = target: pneumococcal polysaccharide Pn11A
# [9] = target: pneumococcal polysaccharide Pn11B
# [10] = target: pneumococcal polysaccharide Pn11C
# [11] = target: pneumococcal polysaccharide Pn11D
# [12] = target: pneumococcal polysaccharide Pn11F
# [13] = target: pneumococcal polysaccharide Pn12A
# [14] = target: pneumococcal polysaccharide Pn12B
# [15] = target: pneumococcal polysaccharide Pn12F
# [16] = target: pneumococcal polysaccharide Pn13
# [17] = target: pneumococcal polysaccharide Pn14
# [18] = target: pneumococcal polysaccharide Pn15A
# [19] = target: pneumococcal polysaccharide Pn15B
# [20] = target: pneumococcal polysaccharide Pn15C
# [21] = target: pneumococcal polysaccharide Pn15F
# [22] = target: pneumococcal polysaccharide Pn16A
# [23] = target: pneumococcal polysaccharide Pn16F
# [24] = target: pneumococcal polysaccharide Pn17A
# [25] = target: pneumococcal polysaccharide Pn17F
# [26] = target: pneumococcal polysaccharide Pn18A
# [27] = antibody concentration 0.1 ng/mL
# [28] = antibody concentration 0.534724 ng/mL
# [29] = antibody concentration 2.8593 ng/mL
# [30] = antibody concentration 15.2894 ng/mL
# [31] = antibody concentration 81.7561 ng/mL
# [32] = antibody concentration 437.17 ng/mL
# [33] = antibody concentration 2337.65 ng/mL
binder,measurement,setting,value
B1,fluorescence intensity,[1]; [27],27.2 MFI
same,fluorescence intensity,[1]; [28],27.5 MFI
same,fluorescence intensity,[1]; [29],26 MFI
same,fluorescence intensity,[1]; [30],28.5 MFI
same,fluorescence intensity,[1]; [31],27 MFI
same,fluorescence intensity,[1]; [32],29 MFI
same,fluorescence intensity,[1]; [33],39 MFI
same,fluorescence intensity,[2]; [27],20.8 MFI
same,fluorescence intensity,[2]; [28],21.5 MFI
same,fluorescence intensity,[2]; [29],20.5 MFI
same,fluorescence intensity,[2]; [30],22 MFI
same,fluorescence intensity,[2]; [31],20 MFI
same,fluorescence intensity,[2]; [32],23.5 MFI
same,fluorescence intensity,[2]; [33],32 MFI
same,fluorescence intensity,[3]; [27],13.5 MFI
same,fluorescence intensity,[3]; [28],13 MFI
same,fluorescence intensity,[3]; [29],13 MFI
same,fluorescence intensity,[3]; [30],14.5 MFI
same,fluorescence intensity,[3]; [31],12.8 MFI
same,fluorescence intensity,[3]; [32],14 MFI
same,fluorescence intensity,[3]; [33],16.5 MFI
same,fluorescence intensity,[4]; [27],25.5 MFI
same,fluorescence intensity,[4]; [28],26 MFI
same,fluorescence intensity,[4]; [29],26.5 MFI
same,fluorescence intensity,[4]; [30],26.8 MFI
same,fluorescence intensity,[4]; [31],26.5 MFI
same,fluorescence intensity,[4]; [32],27.5 MFI
same,fluorescence intensity,[4]; [33],27.5 MFI
same,fluorescence intensity,[5]; [27],24 MFI
same,fluorescence intensity,[5]; [28],25.5 MFI
same,fluorescence intensity,[5]; [29],25.2 MFI
same,fluorescence intensity,[5]; [30],24 MFI
same,fluorescence intensity,[5]; [31],25.5 MFI
same,fluorescence intensity,[5]; [32],24.8 MFI
same,fluorescence intensity,[5]; [33],24.8 MFI
same,fluorescence intensity,[6]; [27],17 MFI
same,fluorescence intensity,[6]; [28],16.5 MFI
same,fluorescence intensity,[6]; [29],16 MFI
same,fluorescence intensity,[6]; [30],16 MFI
same,fluorescence intensity,[6]; [31],17 MFI
same,fluorescence intensity,[6]; [32],14.5 MFI
same,fluorescence intensity,[6]; [33],19 MFI
same,fluorescence intensity,[7]; [27],19 MFI
same,fluorescence intensity,[7]; [28],20.5 MFI
same,fluorescence intensity,[7]; [29],20.2 MFI
same,fluorescence intensity,[7]; [30],19.2 MFI
same,fluorescence intensity,[7]; [31],20 MFI
same,fluorescence intensity,[7]; [32],20 MFI
same,fluorescence intensity,[7]; [33],21.5 MFI
same,fluorescence intensity,[8]; [27],28.5 MFI
same,fluorescence intensity,[8]; [28],30.5 MFI
same,fluorescence intensity,[8]; [29],30.2 MFI
same,fluorescence intensity,[8]; [30],33 MFI
same,fluorescence intensity,[8]; [31],30 MFI
same,fluorescence intensity,[8]; [32],32 MFI
same,fluorescence intensity,[8]; [33],32 MFI
same,fluorescence intensity,[9]; [27],26.5 MFI
same,fluorescence intensity,[9]; [28],26.5 MFI
same,fluorescence intensity,[9]; [29],27.8 MFI
same,fluorescence intensity,[9]; [30],25.8 MFI
same,fluorescence intensity,[9]; [31],26.2 MFI
same,fluorescence intensity,[9]; [32],26.5 MFI
same,fluorescence intensity,[9]; [33],31.5 MFI
same,fluorescence intensity,[10]; [27],22 MFI
same,fluorescence intensity,[10]; [28],19.5 MFI
same,fluorescence intensity,[10]; [29],22 MFI
same,fluorescence intensity,[10]; [30],23 MFI
same,fluorescence intensity,[10]; [31],23 MFI
same,fluorescence intensity,[10]; [32],23.5 MFI
same,fluorescence intensity,[10]; [33],30 MFI
same,fluorescence intensity,[11]; [27],22 MFI
same,fluorescence intensity,[11]; [28],22.2 MFI
same,fluorescence intensity,[11]; [29],23 MFI
same,fluorescence intensity,[11]; [30],22.5 MFI
same,fluorescence intensity,[11]; [31],24 MFI
same,fluorescence intensity,[11]; [32],23.5 MFI
same,fluorescence intensity,[11]; [33],26 MFI
same,fluorescence intensity,[12]; [27],14.8 MFI
same,fluorescence intensity,[12]; [28],12.8 MFI
same,fluorescence intensity,[12]; [29],13.8 MFI
same,fluorescence intensity,[12]; [30],15.5 MFI
same,fluorescence intensity,[12]; [31],14 MFI
same,fluorescence intensity,[12]; [32],15 MFI
same,fluorescence intensity,[12]; [33],17 MFI
same,fluorescence intensity,[13]; [27],15 MFI
same,fluorescence intensity,[13]; [28],13.5 MFI
same,fluorescence intensity,[13]; [29],15.5 MFI
same,fluorescence intensity,[13]; [30],17.5 MFI
same,fluorescence intensity,[13]; [31],14.2 MFI
same,fluorescence intensity,[13]; [32],15.5 MFI
same,fluorescence intensity,[13]; [33],19 MFI
same,fluorescence intensity,[14]; [27],16.5 MFI
same,fluorescence intensity,[14]; [28],16 MFI
same,fluorescence intensity,[14]; [29],16 MFI
same,fluorescence intensity,[14]; [30],15.5 MFI
same,fluorescence intensity,[14]; [31],15.2 MFI
same,fluorescence intensity,[14]; [32],16.5 MFI
same,fluorescence intensity,[14]; [33],18 MFI
same,fluorescence intensity,[15]; [27],19 MFI
same,fluorescence intensity,[15]; [28],19 MFI
same,fluorescence intensity,[15]; [29],17 MFI
same,fluorescence intensity,[15]; [30],19 MFI
same,fluorescence intensity,[15]; [31],19.8 MFI
same,fluorescence intensity,[15]; [32],19.5 MFI
same,fluorescence intensity,[15]; [33],21.5 MFI
same,fluorescence intensity,[16]; [27],18.5 MFI
same,fluorescence intensity,[16]; [28],18.5 MFI
same,fluorescence intensity,[16]; [29],20.5 MFI
same,fluorescence intensity,[16]; [30],19.5 MFI
same,fluorescence intensity,[16]; [31],18.5 MFI
same,fluorescence intensity,[16]; [32],19 MFI
same,fluorescence intensity,[16]; [33],20 MFI
same,fluorescence intensity,[17]; [27],15.8 MFI
same,fluorescence intensity,[17]; [28],15 MFI
same,fluorescence intensity,[17]; [29],15 MFI
same,fluorescence intensity,[17]; [30],15 MFI
same,fluorescence intensity,[17]; [31],15.5 MFI
same,fluorescence intensity,[17]; [32],17 MFI
same,fluorescence intensity,[17]; [33],23.5 MFI
same,fluorescence intensity,[18]; [27],13.8 MFI
same,fluorescence intensity,[18]; [28],12.5 MFI
same,fluorescence intensity,[18]; [29],12 MFI
same,fluorescence intensity,[18]; [30],12.5 MFI
same,fluorescence intensity,[18]; [31],14 MFI
same,fluorescence intensity,[18]; [32],12.5 MFI
same,fluorescence intensity,[18]; [33],14 MFI
same,fluorescence intensity,[19]; [27],20 MFI
same,fluorescence intensity,[19]; [28],19.5 MFI
same,fluorescence intensity,[19]; [29],18.8 MFI
same,fluorescence intensity,[19]; [30],18.8 MFI
same,fluorescence intensity,[19]; [31],20.5 MFI
same,fluorescence intensity,[19]; [32],22 MFI
same,fluorescence intensity,[19]; [33],24.5 MFI
same,fluorescence intensity,[20]; [27],16.5 MFI
same,fluorescence intensity,[20]; [28],17.5 MFI
same,fluorescence intensity,[20]; [29],15 MFI
same,fluorescence intensity,[20]; [30],17.8 MFI
same,fluorescence intensity,[20]; [31],19.5 MFI
same,fluorescence intensity,[20]; [32],15.5 MFI
same,fluorescence intensity,[20]; [33],20 MFI
same,fluorescence intensity,[21]; [27],17.5 MFI
same,fluorescence intensity,[21]; [28],18 MFI
same,fluorescence intensity,[21]; [29],16.5 MFI
same,fluorescence intensity,[21]; [30],17 MFI
same,fluorescence intensity,[21]; [31],18 MFI
same,fluorescence intensity,[21]; [32],18.5 MFI
same,fluorescence intensity,[21]; [33],18.8 MFI
same,fluorescence intensity,[22]; [27],13.2 MFI
same,fluorescence intensity,[22]; [28],13.5 MFI
same,fluorescence intensity,[22]; [29],13 MFI
same,fluorescence intensity,[22]; [30],15 MFI
same,fluorescence intensity,[22]; [31],14.5 MFI
same,fluorescence intensity,[22]; [32],13 MFI
same,fluorescence intensity,[22]; [33],16.5 MFI
same,fluorescence intensity,[23]; [27],24.2 MFI
same,fluorescence intensity,[23]; [28],24.5 MFI
same,fluorescence intensity,[23]; [29],24.8 MFI
same,fluorescence intensity,[23]; [30],25.5 MFI
same,fluorescence intensity,[23]; [31],23.5 MFI
same,fluorescence intensity,[23]; [32],26 MFI
same,fluorescence intensity,[23]; [33],27.5 MFI
same,fluorescence intensity,[24]; [27],22 MFI
same,fluorescence intensity,[24]; [28],22 MFI
same,fluorescence intensity,[24]; [29],21 MFI
same,fluorescence intensity,[24]; [30],21 MFI
same,fluorescence intensity,[24]; [31],21.5 MFI
same,fluorescence intensity,[24]; [32],21 MFI
same,fluorescence intensity,[24]; [33],23 MFI
same,fluorescence intensity,[25]; [27],26 MFI
same,fluorescence intensity,[25]; [28],26 MFI
same,fluorescence intensity,[25]; [29],26 MFI
same,fluorescence intensity,[25]; [30],26.5 MFI
same,fluorescence intensity,[25]; [31],26.5 MFI
same,fluorescence intensity,[25]; [32],26.5 MFI
same,fluorescence intensity,[25]; [33],28 MFI
same,fluorescence intensity,[26]; [27],23.5 MFI
same,fluorescence intensity,[26]; [28],23 MFI
same,fluorescence intensity,[26]; [29],24 MFI
same,fluorescence intensity,[26]; [30],21.8 MFI
same,fluorescence intensity,[26]; [31],23.5 MFI

# An excerpt of these results, with bars between the fields.
binder | measurement | setting | value
B1 | fluorescence intensity | [5]; [30] | 24 MFI
same | fluorescence intensity | [5]; [31] | 25.5 MFI
same | fluorescence intensity | [5]; [32] | 24.8 MFI
same | fluorescence intensity | [5]; [33] | 24.8 MFI

# As a working copy, some entries already given:
binder,measurement,setting,value
B1,fluorescence intensity,[1]; [27],27.2 MFI
same,fluorescence intensity,[1]; [28],27.5 MFI
